Laboratory results reported in doi:10.1101/2021.05.10.443400 (bioRxiv, 2021).
These are yes or no findings as the source states them, for the method shown. For part of these data: In cells and extracts the contact can be indirect. Some results given as binding are weak or reduced against the parent protein; the word gives no strength. For part of these data: Tags and fused reporters may be left off the sequences shown. Values belong to the molecule of their own block, whether it stands above or below them.

Sequences of proteins named here, by UniProt entry; tags and fusion partners are left off.
UniProt P12004: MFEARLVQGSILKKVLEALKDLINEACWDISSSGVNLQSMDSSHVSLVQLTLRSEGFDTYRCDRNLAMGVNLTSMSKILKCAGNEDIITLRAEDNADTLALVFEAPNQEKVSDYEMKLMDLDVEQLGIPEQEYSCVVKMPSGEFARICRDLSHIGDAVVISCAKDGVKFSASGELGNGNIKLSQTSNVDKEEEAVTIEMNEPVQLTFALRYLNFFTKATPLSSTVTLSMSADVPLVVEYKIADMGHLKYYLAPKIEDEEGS
UniProt P15927: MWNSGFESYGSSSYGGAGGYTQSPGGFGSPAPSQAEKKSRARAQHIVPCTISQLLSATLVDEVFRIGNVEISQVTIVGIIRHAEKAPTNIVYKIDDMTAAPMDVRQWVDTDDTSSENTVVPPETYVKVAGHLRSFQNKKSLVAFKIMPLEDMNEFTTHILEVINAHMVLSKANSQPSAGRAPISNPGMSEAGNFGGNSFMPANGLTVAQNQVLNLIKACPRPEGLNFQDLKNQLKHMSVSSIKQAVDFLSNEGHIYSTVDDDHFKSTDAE

Tests used:
[1] = biological target: T1, human Orc6 (hOrc6), endogenous (human (endogenous in U2OS)) (UniProt Q9Y5N6); test: co-IP
T1 sequence: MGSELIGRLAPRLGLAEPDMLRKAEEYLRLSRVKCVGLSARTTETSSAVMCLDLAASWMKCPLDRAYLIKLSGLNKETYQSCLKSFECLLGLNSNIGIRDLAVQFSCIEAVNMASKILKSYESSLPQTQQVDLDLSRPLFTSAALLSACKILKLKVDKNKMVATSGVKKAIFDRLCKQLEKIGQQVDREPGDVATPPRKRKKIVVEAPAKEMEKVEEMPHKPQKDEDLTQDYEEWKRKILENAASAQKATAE

[2] = biological target: T2, Orc6 expressed by transient transfection for SiMPull (human) (UniProt Q9Y5N6); test: single molecule pull-down
T2 sequence: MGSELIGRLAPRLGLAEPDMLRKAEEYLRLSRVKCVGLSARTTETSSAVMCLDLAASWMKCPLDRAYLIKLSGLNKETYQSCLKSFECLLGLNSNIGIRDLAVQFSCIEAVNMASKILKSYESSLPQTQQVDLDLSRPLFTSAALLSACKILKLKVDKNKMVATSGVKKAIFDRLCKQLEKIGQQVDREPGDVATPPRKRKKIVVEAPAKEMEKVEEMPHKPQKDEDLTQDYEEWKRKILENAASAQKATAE

[3] = biological target: T3, Human GST-Flag-Orc6, full length (human) (UniProt Q9Y5N6); test: pull-down
T3 sequence: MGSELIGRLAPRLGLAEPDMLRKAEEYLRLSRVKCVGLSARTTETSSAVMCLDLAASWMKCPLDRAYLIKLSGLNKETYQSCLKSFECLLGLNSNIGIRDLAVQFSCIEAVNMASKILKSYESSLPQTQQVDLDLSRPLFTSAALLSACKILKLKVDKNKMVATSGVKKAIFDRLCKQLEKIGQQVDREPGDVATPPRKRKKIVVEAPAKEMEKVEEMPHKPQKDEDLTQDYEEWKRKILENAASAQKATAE

- binding [1]: binds
Molecule: DNA clamp PCNA, endogenous (from UniProt P12004 1-261)

- binding [2]: binds
Molecule: RPA32 expressed by transient transfection for SiMPull (from UniProt P15927 1-270)

- binding [3]: no binding
B1: Human Flag-MutLα (MLH1-PMS2 complex), purified (complex)
chain 1: MSFVAGVIRRLDETVVNRIAAGEVIQRPANAIKEMIENCLDAKSTSIQVIVKEGGLKLIQIQDNGTGIRKEDLDIVCERFTTSKLQSFEDLASISTYGFRGEALASISHVAHVTITTKTADGKCAYRASYSDGKLKAPPKPCAGNQGTQITVEDLFYNIATRRKALKNPSEEYGKILEVVGRYSVHNAGISFSVKKQGETVADVRTLPNASTVDNIRSIFGNAVSRELIEIGCEDKTLAFKMNGYISNANYSVKKCIFLLFINHRLVESTSLRKAIETVYAAYLPKNTHPFLYLSLEISPQNVDVNVHPTKHEVHFLHEESILERVQQHIESKLLGSNSSRMYFTQTLLPGLAGPSGEMVKSTTSLTSSSTSGSSDKVYAHQMVRTDSREQKLDAFLQPLSKPLSSQPQAIVTEDKTDISSGRARQQDEEMLELPAPAEVAAKNQSLEGDTTKGTSEMSEKRGPTSSNPRKRHREDSDVEMVEDDSRKEMTAACTPRRRIINLTSVLSLQEEINEQGHEVLREMLHNHSFVGCVNPQWALAQHQTKLYLLNTTKLSEELFYQILIYDFANFGVLRLSEPAPLFDLAMLALDSPESGWTEEDGPKEGLAEYIVEFLKKKAEMLADYFSLEIDEEGNLIGLPLLIDNYVPPLEGLPIFILRLATEVNWDEEKECFESLSKECAMFYSIRKQYISEESTLSGQQSEVPGSIPNSWKWTVEHIVYKALRSHILPPKHFTEDGNILQLANLPDLYKVFERC
chain 2: MERAESSSTEPAKAIKPIDRKSVHQICSGQVVLSLSTAVKELVENSLDAGATNIDLKLKDYGVDLIEVSDNGCGVEEENFEGLTLKHHTSKIQEFADLTQVETFGFRGEALSSLCALSDVTISTCHASAKVGTRLMFDHNGKIIQKTPYPRPRGTTVSVQQLFSTLPVRHKEFQRNIKKEYAKMVQVLHAYCIISAGIRVSCTNQLGQGKRQPVVCTGGSPSIKENIGSVFGQKQLQSLIPFVQLPPSDSVCEEYGLSCSDALHNLFYISGFISQCTHGVGRSSTDRQFFFINRRPCDPAKVCRLVNEVYHMYNRHQYPFVVLNISVDSECVDINVTPDKRQILLQEEKLLLAVLKTSLIGMFDSDVNKLNVSQQPLLDVEGNLIKMHAADLEKPMVEKQDQSPSLRTGEEKKDVSISRLREAFSLRHTTENKPHSPKTPEPRRSPLGQKRGMLSSSTSGAISDKGVLRPQKEAVSSSHGPSDPTDRAEVEKDSGHGSTSVDSEGFSIPDTGSHCSSEYAASSPGDRGSQEHVDSQEKAPKTDDSFSDVDCHSNQEDTGCKFRVLPQPTNLATPNTKRFKKEEILSSSDICQKLVNTQDMSASQVDVAVKINKKVVPLDFSMSSLAKRIKQLHHEAQQSEGEQNYRKFRAKICPGENQAAEDELRKEISKTMFAEMEIIGQFNLGFIITKLNEDIFIVDQHATDEKYNFEMLQQHTVLQGQRLIAPQTLNLTAVNEAVLIENLEIFRKNGFDFVIDENAPVTERAKLISLPTSKNWTFGPQDVDELIFMLSDSPGVMCRPSRVKQMFASRACRKSVMIGTALNTSEMKKLITHMGEMDHPWNCPHGRPTMRHIANLGVISQN
